From the supplement of paper PMC4604168 (melanoma cell lines) come the findings set out here.

The structures appear in SMILES notation. The list shows a part of the results. Repeats are few or missing, and single values can be far off.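 The apoptosis fraction was the count of cleaved-PARP antibody-stained nuclei relative to all DNA-stained nuclei, imaged in 1,536-well plates. Screening doses were set so most cells survived, and baseline and induced cleaved-PARP levels vary greatly across cell lines.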

The assay relates to UACC62. Put plainly: cleaved PARP positive nuclei fraction relative to DMSO control; melanoma cells; higher = more apoptosis. As to conditions: library dose: low library concentration; 72 h.
Take `O=c1[nH]nc(Sc2ncc([N+](=O)[O-])s2)n1-c1ccc2c(c1)OCCO2` + COc1ccc(COc2ccc(Cc3cnc(N)nc3N)cc2OC)cc1 [GW2580] (first compound 0.2 µM, partner dose 1 µM): the “cleaved PARP positive nuclei fraction” value is 54.8%.
Consider `COc1cc([C@@H]2c3cc4c(cc3[C@@H](O[C@@H]3O[C@@H]5CO[C@@H](C)O[C@H]5[C@H](O)[C@H]3O)[C@H]3COC(=O)[C@H]23)OCO4)cc(OC)c1O` [etoposide] + O=S(=O)(c1ccccc1)N(CC(F)(F)F)c1ccc(C(O)(C(F)(F)F)C(F)(F)F)cc1 [T0901317] (first compound 0.02 µM, partner dose 1.4 µM), for which the “cleaved PARP positive nuclei fraction” value is 149%.
On to `O=c1[nH]nc(Sc2ncc([N+](=O)[O-])s2)n1-c1ccc2c(c1)OCCO2` + O=S(=O)(c1ccccc1)N(CC(F)(F)F)c1ccc(C(O)(C(F)(F)F)C(F)(F)F)cc1 [T0901317] (first compound 0.2 µM, partner dose 1.4 µM), for which the “cleaved PARP positive nuclei fraction” value worked out at 85.7%.
With `Cc1cc(Nc2cc(N3CCN(C)CC3)nc(Sc3ccc(NC(=O)C4CC4)cc3)n2)n[nH]1` [Tozasertib] + Cn1cncc1[C@@](N)(c1ccc(Cl)cc1)c1ccc2c(c1)c(-c1cccc(Cl)c1)cc(=O)n2C [tipifarnib] (first compound 0.006 µM, partner dose 0.01 µM), the “cleaved PARP positive nuclei fraction” value was 72%.
Consider `CC[C@]1(O)C[C@H]2CN(CCc3c([nH]c4ccccc34)[C@@](C(=O)OC)(c3cc4c(cc3OC)N(C=O)[C@H]3[C@@](O)(C(=O)OC)[C@H](OC(C)=O)[C@]5(CC)C=CCN6CC[C@]43[C@@H]65)C2)C1` [vincristine] + c1cc(-c2cnn3cc(-c4ccc(OCCN5CCCCC5)cc4)cnc23)ccn1 [Dorsomorphin] (first compound 0.0001 µM, partner dose 0.4 µM), for which the “cleaved PARP positive nuclei fraction” value was found to be 134%.
For `Cc1ccc(Nc2nccc(N(C)c3ccc4c(C)n(C)nc4c3)n2)cc1S(N)(=O)=O` [Pazopanib] + CN(NC(=O)CC(=O)NN(C)C(=S)c1ccccc1)C(=S)c1ccccc1 [STA4783] (first compound 0.4 µM, partner dose 0.006 µM), the “cleaved PARP positive nuclei fraction” value worked out at 111%.
On to `Cc1cn(-c2cc(NC(=O)c3ccc(C)c(Nc4nccc(-c5cccnc5)n4)c3)cc(C(F)(F)F)c2)cn1` [nilotinib] + COc1ccc(COc2ccc(Cc3cnc(N)nc3N)cc2OC)cc1 [GW2580] (first compound 0.2 µM, partner dose 1 µM), for which the “cleaved PARP positive nuclei fraction” value worked out at 152%.
For the compound `COc1cc([C@@H]2c3cc4c(cc3[C@@H](O[C@@H]3O[C@@H]5CO[C@@H](C)O[C@H]5[C@H](O)[C@H]3O)[C@H]3COC(=O)[C@H]23)OCO4)cc(OC)c1O` [etoposide] + C[C@@H]1CCN(C(=O)CC#N)C[C@@H]1N(C)c1ncnc2[nH]ccc12 [CP690550] (first compound 0.02 µM, partner dose 1 µM), the “cleaved PARP positive nuclei fraction” value turned out to be 68%.
For `Cc1cn(-c2cc(NC(=O)c3ccc(C)c(Nc4nccc(-c5cccnc5)n4)c3)cc(C(F)(F)F)c2)cn1` [nilotinib] + Cn1cc(/C=C2\C(=O)Nc3cccnc32)c2ccccc21 [GW441756] (first compound 0.2 µM, partner dose 0.4 µM), the “cleaved PARP positive nuclei fraction” value came to 89.7%.
Turning to `Cc1cn(-c2cc(NC(=O)c3ccc(C)c(Nc4nccc(-c5cccnc5)n4)c3)cc(C(F)(F)F)c2)cn1` [nilotinib] + O=c1cc(-c2cccc3c2Sc2ccccc2S3)oc(N2CCOCC2)c1 [KU55933] (first compound 0.2 µM, partner dose 1 µM), the “cleaved PARP positive nuclei fraction” value worked out at 37.6%.
On to `CC[C@]1(O)C[C@H]2CN(CCc3c([nH]c4ccccc34)[C@@](C(=O)OC)(c3cc4c(cc3OC)N(C=O)[C@H]3[C@@](O)(C(=O)OC)[C@H](OC(C)=O)[C@]5(CC)C=CCN6CC[C@]43[C@@H]65)C2)C1` [vincristine] + NC(=O)Nc1cc(-c2cccc(F)c2)sc1C(=O)N[C@H]1CCCNC1 [AZD7762] (first compound 0.0001 µM, partner dose 0.02 µM), for which the “cleaved PARP positive nuclei fraction” value was determined as 579%.
As for `CCCCCCCCCCCCCCCCCCOP(=O)([O-])OC1CC[N+](C)(C)CC1` [Perifosine] + COc1ccc2c(c1)CCC1C2CCC2(C)C(NCCCCCCN3C(=O)C=CC3=O)CCC12 [U73122] (first compound 0.4 µM, partner dose 0.4 µM), the “cleaved PARP positive nuclei fraction” value is 92.5%.
With `Cc1cn(-c2cc(NC(=O)c3ccc(C)c(Nc4nccc(-c5cccnc5)n4)c3)cc(C(F)(F)F)c2)cn1` [nilotinib] + Cc1ccc(NC(=O)c2cccc(N(C)C)c2)cc1NC(=O)c1ccc(O)cc1 [ZM336372] (first compound 0.2 µM, partner dose 2 µM), the “cleaved PARP positive nuclei fraction” value stood at 88%.
Take `CC[C@]1(O)C[C@H]2CN(CCc3c([nH]c4ccccc34)[C@@](C(=O)OC)(c3cc4c(cc3OC)N(C=O)[C@H]3[C@@](O)(C(=O)OC)[C@H](OC(C)=O)[C@]5(CC)C=CCN6CC[C@]43[C@@H]65)C2)C1` [vincristine] + O=C(Nc1cccc(Cl)c1)Nc1ncc(CCNc2ncnc3ccsc23)s1 [SNS314] (first compound 0.0001 µM, partner dose 0.0008 µM): the “cleaved PARP positive nuclei fraction” value came out at 241%.
With `Cc1ccc(Nc2nccc(N(C)c3ccc4c(C)n(C)nc4c3)n2)cc1S(N)(=O)=O` [Pazopanib] + O=C(Nc1cccc(Cl)c1)Nc1ncc(CCNc2ncnc3ccsc23)s1 [SNS314] (first compound 0.4 µM, partner dose 0.0008 µM), the “cleaved PARP positive nuclei fraction” value amounted to 95.9%.
On to `CC[C@]1(O)C[C@H]2CN(CCc3c([nH]c4ccccc34)[C@@](C(=O)OC)(c3cc4c(cc3OC)N(C=O)[C@H]3[C@@](O)(C(=O)OC)[C@H](OC(C)=O)[C@]5(CC)C=CCN6CC[C@]43[C@@H]65)C2)C1` [vincristine] + COc1ccc(-c2ccc3c(N4CCOCC4)nc(N4C[C@@H](C)O[C@@H](C)C4)nc3n2)cc1CO [KU0063794] (first compound 0.0001 µM, partner dose 0.02 µM), for which the “cleaved PARP positive nuclei fraction” value amounted to 172%.
As to `O=c1[nH]nc(Sc2ncc([N+](=O)[O-])s2)n1-c1ccc2c(c1)OCCO2` + COc1cc(Nc2ncc(F)c(Nc3ccc4c(n3)NC(=O)C(C)(C)O4)n2)cc(OC)c1OC [Tamatinib] (first compound 0.2 µM, partner dose 0.4 µM), the “cleaved PARP positive nuclei fraction” value worked out at 77%.
Regarding `O=C(/C=C/c1cccnc1)NCCCCC1CCN(C(=O)c2ccccc2)CC1` + Cc1cc(N2CCOCC2)cc2[nH]c(-c3c(NC[C@@H](O)c4cccc(Cl)c4)cc[nH]c3=O)nc12 [BMS536924] (first compound 0.01 µM, partner dose 0.2 µM), the “cleaved PARP positive nuclei fraction” value is 226%.
As to `Cc1cc(Nc2cc(N3CCN(C)CC3)nc(Sc3ccc(NC(=O)C4CC4)cc3)n2)n[nH]1` [Tozasertib] + CC1(C)NC(=O)N(c2ccc([N+](=O)[O-])c(C(F)(F)F)c2)C1=O [nilutamide] (first compound 0.006 µM, partner dose 1 µM), the “cleaved PARP positive nuclei fraction” value worked out at 128%.
Consider `O=C(/C=C/c1cccnc1)NCCCCC1CCN(C(=O)c2ccccc2)CC1` + O=S(=O)(c1ccccc1)N(CC(F)(F)F)c1ccc(C(O)(C(F)(F)F)C(F)(F)F)cc1 [T0901317] (first compound 0.01 µM, partner dose 1.4 µM), for which the “cleaved PARP positive nuclei fraction” value amounted to 57.4%.
Consider `CC[C@]1(O)C[C@H]2CN(CCc3c([nH]c4ccccc34)[C@@](C(=O)OC)(c3cc4c(cc3OC)N(C=O)[C@H]3[C@@](O)(C(=O)OC)[C@H](OC(C)=O)[C@]5(CC)C=CCN6CC[C@]43[C@@H]65)C2)C1` [vincristine] + Cc1cc(N2CCOCC2)cc2[nH]c(-c3c(NC[C@@H](O)c4cccc(Cl)c4)cc[nH]c3=O)nc12 [BMS536924] (first compound 0.0001 µM, partner dose 0.2 µM), for which the “cleaved PARP positive nuclei fraction” value was determined as 612%.
With `O=c1[nH]nc(Sc2ncc([N+](=O)[O-])s2)n1-c1ccc2c(c1)OCCO2` + O=c1cc(-c2cccc3c2Sc2ccccc2S3)oc(N2CCOCC2)c1 [KU55933] (first compound 0.2 µM, partner dose 1 µM), the “cleaved PARP positive nuclei fraction” value turned out to be 176%.
With `COc1cc([C@@H]2c3cc4c(cc3[C@@H](O[C@@H]3O[C@@H]5CO[C@@H](C)O[C@H]5[C@H](O)[C@H]3O)[C@H]3COC(=O)[C@H]23)OCO4)cc(OC)c1O` [etoposide] + O=C1NC(=O)/C(=C/c2ccc(-c3ccc(F)cc3O)o2)S1 [AS252424] (first compound 0.02 µM, partner dose 1 µM), the “cleaved PARP positive nuclei fraction” value is 75.9%.
For the compound `Cc1cn(-c2cc(NC(=O)c3ccc(C)c(Nc4nccc(-c5cccnc5)n4)c3)cc(C(F)(F)F)c2)cn1` [nilotinib] + CCCCCCCCCCCC1=C(O)C(=O)C=C(O)C1=O [Embelin] (first compound 0.2 µM, partner dose 1.2 µM), the “cleaved PARP positive nuclei fraction” value was 29.3%.
As for `O=c1[nH]nc(Sc2ncc([N+](=O)[O-])s2)n1-c1ccc2c(c1)OCCO2` + CCCCCCCCCCCC1=C(O)C(=O)C=C(O)C1=O [Embelin] (first compound 0.2 µM, partner dose 1.2 µM), the “cleaved PARP positive nuclei fraction” value stood at 67.5%.
With `O=c1[nH]nc(Sc2ncc([N+](=O)[O-])s2)n1-c1ccc2c(c1)OCCO2` + O=C(Nc1cccc(Cl)c1)Nc1ncc(CCNc2ncnc3ccsc23)s1 [SNS314] (first compound 0.2 µM, partner dose 0.0008 µM) the figure was 101%; with `CCCCCCCCCCCCCCCCCCOP(=O)([O-])OC1CC[N+](C)(C)CC1` [Perifosine] + NC(=O)Nc1cc(-c2cccc(F)c2)sc1C(=O)N[C@H]1CCCNC1 [AZD7762] (first compound 0.4 µM, partner dose 0.02 µM), 79.1%.
